From PubChem BioAssay AID504444 (National Center for Advancing Translational Sciences (NCATS), 2011)
About 7,500 (2.1%) of roughly 360,000 compounds were called active. Inconclusive means that the source gave no clear call. Such entries were picked first, then a sample of the others. The call rests on the fitted dose curve; in most records, active means well fitted inhibition curve with a large enough effect; inconclusive means small, poorly fitted or top-dose-only effect, or effect the other way; inactive means flat fitted curve, though single readings scatter. A potency beside an inconclusive call is a rough fit, not a confirmed value.

Experiment: Nrf2 qHTS screen for inhibitors; further: nearly all actives have a fitted effect of over 60% in size
Settings: A549 ARE-Fluc reporter, luciferase luminescence, 18-24 h; activity change, negative = inhibition: at 46 µM (top of the series)
How it was run: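 A549 ARE_Fluc cells (5000/well, 5% FBS OPTI-MEM) pre-incubated 2 h, then treated with compounds 18-24 h at 37C/5% CO2 in concentration-response. CellTiter-Fluor viability read first; BugLite luciferase luminescence after 15 min at room temperature gives Nrf2 activity.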
On the % scale 0 is the no-effect control and ±100 the full control effect; potency means the concentration at half of the fitted maximal effect.

Q: With `Cc1cc(C)c(S(=O)(=O)Nc2ccc(N3CCOCC3)cc2)c(C)c1` as the compound, how does the Potency read?
A: Its Potency is inconclusive: 7.31 µM [falling, full curve, poor fit].

Q: With `CC(C)CN(C(=O)CSc1nc2ccccc2c(=O)[nH]1)c1c(N)n(CC(C)C)c(=O)[nH]c1=O` as the compound, how does the “activity change, negative = inhibition” value read?
A: Its value is inactive: 16%.

Q: For `CCOc1ccc(S(=O)(=O)N2CCC(C(=O)NCc3ccncc3)CC2)cc1`, which “activity change, negative = inhibition” value is on record?
A: Its value is inactive: -5.88%.

Q: Which Potency does the source give for `C/C(=N\NC(=O)c1nnn(-c2nonc2N)c1-c1ccccc1)c1ccccc1O` here?
A: The Potency was active: 4.61 µM.

Q: With `Cc1cccc(NC(=O)c2cc3ccccc3o2)c1` as the compound, how does the Potency read?
A: The Potency was inconclusive: 5.17 µM [activator, full curve].

Q: For `Cc1ccccc1C(=O)O/N=C(\N)c1ccccc1`, which Potency is on record?
A: The Potency was inconclusive: 20.6 µM [falling, single point].

Q: For `COc1ccc(OC)c(Nc2ncnc3c2nc2n3CCCC2)c1`, which Potency is on record?
A: The Potency was inconclusive: 29.1 µM [activator, single point].

Q: For `COc1ccc(/C=C2\SC(=O)N(CCNC(=O)C3=COCCO3)C2=O)cc1`, which Potency is on record?
A: Its Potency is inconclusive: 20.6 µM [activator, partial curve].

Q: Which Potency does the source give for `Cc1ccc(NC(=S)NCc2ccccc2)cc1S(=O)(=O)N1CCCCC1` here?
A: Its Potency is inconclusive: 29.1 µM [falling, single point].

Q: For `CN(C)S(=O)(=O)c1cccc(C(=O)Nc2ccc(Cl)cn2)c1`, which Potency is on record?
A: Its Potency is inconclusive: 2.91 µM [activator, partial curve, poor fit].

Q: With `CSCCC1NC2(C(=O)Nc3c(C)cc(Cl)cc32)[C@@H]2C(=O)N(C3CCCC3)C(=O)[C@H]12` (stereo partly drawn) as the compound, how does the Potency read?
A: The Potency was inconclusive: 32.6 µM [falling, single point].

Q: With `CCCc1ccc(OCCNC(=O)c2ccco2)cc1` as the compound, how does the Potency read?
A: Its Potency is inconclusive: 6.51 µM [activator, partial curve, poor fit].

Q: With `COc1ccccc1N(C(=O)c1snc(C(N)=O)c1N)C(C(=O)NCCC(C)C)c1ccco1` (stereo not drawn) as the compound, how does the Potency read?
A: The Potency was inconclusive: 20.6 µM [falling, partial curve, poor fit].

Q: For `CN1C(=O)/C(=C\c2ccc(N(C)C)cc2)OC1=S`, which Potency is on record?
A: The Potency was inconclusive: 6.51 µM [activator, partial curve].

Q: For `Cc1ccc(S(=O)(=O)NCC(C)n2nc(C)cc2C)cc1` (stereo not drawn), which “activity change, negative = inhibition” value is on record?
A: The value was inactive: -10.4%.

Q: With `O=c1cc(N2CCCC2)c2ccccc2o1` as the compound, how does the Potency read?
A: Its Potency is inconclusive: 2.91 µM [falling, partial curve].

Q: For `CCOC(=O)C1(Cc2cccc(OC)c2)CCN(Cc2cccc(OCC)c2O)CC1`, which Potency is on record?
A: Its Potency is inconclusive: 5.17 µM [activator, single point].

Q: Which “activity change, negative = inhibition” value does the source give for `CC(C)(C)NC(=O)C(=O)NNC(=O)c1cccc([N+](=O)[O-])c1` here?
A: Its value is inactive: 9.71%.

Q: With `Cn1c(COc2ccccc2)nnc1SCCN1CCOCC1` as the compound, how does the Potency read?
A: The Potency was inconclusive: 25.9 µM [activator, single point].

Q: For `Cc1ccc(OCC(=O)Nc2ccc(NC(=O)c3cccs3)cc2)c(C)c1`, which Potency is on record?
A: The Potency was inconclusive: 18.4 µM [falling, single point].

Q: Which Potency does the source give for `COc1ccc(CNCC(O)COc2ccc(C(C)(C)c3ccccc3)cc2)cc1` (stereo not drawn) here?
A: Its Potency is inconclusive: 4.61 µM [activator, single point].

Q: For `CCOC(=O)Cn1c(C(F)(F)F)nc2nc(Cl)c(Cl)nc21`, which Potency is on record?
A: The Potency was inconclusive: 20.6 µM [falling, single point].

Q: For `CC1=CCC2(CO)COC(c3ccccc3O)C1C2` (stereo not drawn), which “activity change, negative = inhibition” value is on record?
A: The value was inactive: 3.22%.

Q: For `COc1ccc(Cn2c(=O)c3[nH]cnc3n(-c3ccccc3C)c2=O)cc1`, which “activity change, negative = inhibition” value is on record?
A: The value was inactive: -14.8%.

Q: For `CC(C)C[C@@H](CSc1ccccc1)N1CCN(CC(C)C)CCC1=O`, which Potency is on record?
A: The Potency was inconclusive: 16.4 µM [activator, partial curve].

Q: Which Potency does the source give for `CCOC(=O)Cn1cnc2c(cnn2-c2ccc(OC)cc2)c1=O` here?
A: Its Potency is inconclusive: 25.9 µM [activator, single point].

Q: For `OC(COc1ccc2ccccc2c1Br)Cn1ccnc1` (stereo not drawn), which Potency is on record?
A: Its Potency is inconclusive: 29.1 µM [falling, single point].

Q: For `c1ccc(-c2noc(-c3cccnc3)n2)cc1`, which Potency is on record?
A: Its Potency is inconclusive: 2.91 µM [activator, full curve].

Q: For `CC(=O)N1c2ccc(S(=O)(=O)NCC3CCC(C(=O)Nc4ccc(C)c(C)c4)CC3)cc2CC1C` (stereo not drawn), which Potency is on record?
A: Its Potency is active: 20.6 µM.

Q: For `Cc1ccc2nc(C3CCN(S(=O)(=O)c4ccc5ccccc5c4)CC3)[nH]c2c1`, which Potency is on record?
A: The Potency was inconclusive: 20.6 µM [falling, single point].

Q: Which Potency does the source give for `O=C(Nc1ccon1)c1nc[nH]c1C(=O)NCc1ccccc1` here?
A: Its Potency is inconclusive: 8.2 µM [falling, partial curve, poor fit].

Q: With `CCNC(=O)c1ccc2c(c1)C1C3CCC(C3)C1C(c1ccccc1)N2` (stereo not drawn) as the compound, how does the Potency read?
A: Its Potency is inconclusive: 25.9 µM [falling, single point].

Q: With `Cc1ccc(NC(=S)NNc2ccc([N+](=O)[O-])cc2S(=O)(=O)Nc2ccccc2C(=O)O)cc1C` as the compound, how does the “activity change, negative = inhibition” value read?
A: The value was inactive: 4.08%.

Q: Which Potency does the source give for `Cn1c(/C(C#N)=C(\O)c2ccc(Cl)s2)nc2ccccc21` here?
A: Its Potency is inconclusive: 7.31 µM [activator, single point].

Q: With `O=C(O)COc1ccc2nsnc2c1Cl` as the compound, how does the “activity change, negative = inhibition” value read?
A: Its value is inactive: -4.06%.

Q: With `CC(Oc1ccc(F)cc1)c1nnc(SCC(=O)N(c2ccccc2)C2CCS(=O)(=O)C2)o1` (stereo not drawn) as the compound, how does the Potency read?
A: Its Potency is inconclusive: 23.1 µM [falling, single point].

Q: For `CC(C)(C)OC(=O)NCCc1nnc(SCc2ccccc2Cl)o1`, which Potency is on record?
A: The Potency was active: 25.9 µM.

Q: With `O=C(Cn1nnc(-c2ccccc2)n1)NC1CCS(=O)(=O)C1` (stereo not drawn) as the compound, how does the “activity change, negative = inhibition” value read?
A: Its value is inactive: -1.69%.

Q: For `COc1ccccc1-c1nnc2sc(-c3ccc(N(C)C)cc3)nn12`, which Potency is on record?
A: Its Potency is inconclusive: 0.92 µM [activator, partial curve].

Q: For `COc1ccccc1NC(=O)C1CCN(S(=O)(=O)c2ccc3[nH]c4c(c3c2)CCCCC4)CC1`, which Potency is on record?
A: The Potency was inconclusive: 29.1 µM [falling, single point].

Q: With `O=C(NC(=S)NC1CCCCC1)c1ccc(F)cc1` as the compound, how does the Potency read?
A: The Potency was inconclusive: 16.4 µM [activator, partial curve].

Q: Which Potency does the source give for `Cc1cc(C)c(NC(=O)CCn2c(=O)c3cccn3c3ccccc32)c(C)c1` here?
A: The Potency was inconclusive: 29.1 µM [falling, single point].

Q: For `CCCOC(=O)C1C2C=CC(C3CC23)C1C(=O)OCC(=O)c1ccccc1` (stereo not drawn), which Potency is on record?
A: Its Potency is inconclusive: 29.1 µM [falling, single point].

Q: With `COc1cc(NC(=O)CN2c3ccccc3CC2C)cc(OC)c1OC` (stereo not drawn) as the compound, how does the Potency read?
A: Its Potency is inconclusive: 13 µM [falling, partial curve].

Q: Which Potency does the source give for `CC(=O)Nc1ccc(N=NN2CCOCC2)cc1` here?
A: Its Potency is inconclusive: 10.3 µM [activator, partial curve, poor fit].

Q: With `Cc1ccc(-c2nc(CN(C)C(C3CC3)C3CC3)c(C)o2)cc1` as the compound, how does the Potency read?
A: The Potency was inconclusive: 9.2 µM [activator, partial curve].

Q: With `Oc1ccc(-c2nc(-c3ccccc3)c(-c3ccc(Br)cc3)[nH]2)cc1` as the compound, how does the “activity change, negative = inhibition” value read?
A: The value was inactive: -23.2%.

Q: With `CC(=O)c1ccc(OCCCC(=O)N2CCN(S(=O)(=O)c3ccc(C(C)C)cc3)CC2)cc1` as the compound, how does the Potency read?
A: The Potency was active: 20.6 µM.

Q: For `O=C(NCCc1ccccc1)C(=O)NCC1OCCN1S(=O)(=O)c1ccc(Cl)cc1` (stereo not drawn), which Potency is on record?
A: Its Potency is inconclusive: 14.6 µM [falling, partial curve, poor fit].

Q: With `Cc1csc(SCC(=O)Nc2nc3ccccc3s2)n1` as the compound, how does the Potency read?
A: Its Potency is inconclusive: 23.1 µM [activator, partial curve, poor fit].

Q: With `CCCS(=O)(=O)N1CCCC(C(=O)Oc2ccc(C)c(C)c2)C1` (stereo not drawn) as the compound, how does the “activity change, negative = inhibition” value read?
A: The value was inactive: -2.59%.

Q: With `CC(=O)c1ccc(-c2cc([C@H]3[C@H]4C=CC[C@@H](C)[C@@H]4C(=O)N3Cc3ccccc3)ccc2F)cc1` as the compound, how does the Potency read?
A: The Potency was active: 20.6 µM.

Q: Which Potency does the source give for `CCc1cc(=O)oc2cc(C)cc(OC(C)C(=O)NC3CCN(Cc4ccccc4)CC3)c12` (stereo not drawn) here?
A: Its Potency is inconclusive: 20.6 µM [falling, single point].

Q: For `Cc1cccc(NC(=S)/N=C(\N)Nc2nc(C)c3cc(C)ccc3n2)c1`, which “activity change, negative = inhibition” value is on record?
A: The value was inactive: 11.8%.

Q: Which Potency does the source give for `CN(Cc1ccccc1)Cc1nc2c(c(=O)n(C)c(=O)n2C)n1Cc1ccc(Cl)cc1` here?
A: Its Potency is active: 14.6 µM.

Q: For `CCOc1ccc(CCn2c(-c3ccco3)nc3ccccc3c2=O)cc1OCC`, which Potency is on record?
A: Its Potency is inconclusive: 5.17 µM [activator, partial curve, poor fit].

Q: For `CC(=O)c1ccc(NC(=O)Nc2ccc3c(c2)nc(C)n3C)cc1`, which Potency is on record?
A: Its Potency is inconclusive: 13 µM [activator, partial curve].

Q: Which Potency does the source give for `CCOC(=O)c1c(C)nc2c(c1-c1ccc(Cl)cc1)C(=O)CC(C)(C)C2` here?
A: Its Potency is inconclusive: 2.06 µM [activator, partial curve, poor fit].

Q: Which Potency does the source give for `CC(C)Oc1ncnc2c1[nH]c1ccccc12` here?
A: Its Potency is active: 8.2 µM.

Q: For `N#Cc1cc(C(=O)c2ccccc2O)cn(-c2ccc(Cl)cc2)c1=O`, which Potency is on record?
A: The Potency was inconclusive: 2.59 µM [activator, partial curve, poor fit].

Q: For `Cc1ccc(NC(=O)C(C)SCc2ccccc2)cc1` (stereo not drawn), which Potency is on record?
A: Its Potency is inconclusive: 3.66 µM [activator, full curve, poor fit].

Q: For `CC(Nc1ccc2c(c1)OCCO2)C(=O)N1c2ccccc2CC1C` (stereo not drawn), which Potency is on record?
A: Its Potency is inconclusive: 23.1 µM [falling, single point].

Q: For `COc1ccc2nc(NC(=O)[C@@H]3CCCN3C(=O)c3cccs3)sc2c1`, which Potency is on record?
A: Its Potency is inconclusive: 23.1 µM [activator, partial curve, poor fit].

Q: Which Potency does the source give for `CSc1nc2cc(C)nn2c(-c2ccc(C(C)(C)C)cc2)c1C#N` here?
A: The Potency was inconclusive: 25.9 µM [activator, single point].

Q: With `Cc1ccc(C(C[N+](=O)[O-])c2c(-c3ccccc3O)[nH][nH]c2=O)cc1` (stereo not drawn) as the compound, how does the “activity change, negative = inhibition” value read?
A: Its value is inactive: -10.1%.

Q: Which “activity change, negative = inhibition” value does the source give for `CCn1c(=O)c([N+](=O)[O-])c(NCc2ccco2)c2ccccc21` here?
A: The value was inactive: -16.9%.

Q: With `COc1ccc(OCC2NCCc3cc(OC)c(OC)cc32)cc1` (stereo not drawn) as the compound, how does the Potency read?
A: Its Potency is inconclusive: 29.1 µM [falling, single point].

Q: With `COc1ccc(CCNC(=O)C2CCCN(Cc3nc(-c4ccccc4C)oc3C)C2)cc1OC` (stereo not drawn) as the compound, how does the Potency read?
A: The Potency was inconclusive: 11.6 µM [falling, partial curve, poor fit].
